These are yes or no findings as the source states them, for the method shown. In cells and extracts the contact can be indirect. Some results given as binding are weak or reduced against the parent protein; the word gives no strength.
Molecular target: T1, Hyaluronan mediated motility receptor (HMMR) (human (endogenous in A549, H1299)) (UniProt O75330)
T1 sequence: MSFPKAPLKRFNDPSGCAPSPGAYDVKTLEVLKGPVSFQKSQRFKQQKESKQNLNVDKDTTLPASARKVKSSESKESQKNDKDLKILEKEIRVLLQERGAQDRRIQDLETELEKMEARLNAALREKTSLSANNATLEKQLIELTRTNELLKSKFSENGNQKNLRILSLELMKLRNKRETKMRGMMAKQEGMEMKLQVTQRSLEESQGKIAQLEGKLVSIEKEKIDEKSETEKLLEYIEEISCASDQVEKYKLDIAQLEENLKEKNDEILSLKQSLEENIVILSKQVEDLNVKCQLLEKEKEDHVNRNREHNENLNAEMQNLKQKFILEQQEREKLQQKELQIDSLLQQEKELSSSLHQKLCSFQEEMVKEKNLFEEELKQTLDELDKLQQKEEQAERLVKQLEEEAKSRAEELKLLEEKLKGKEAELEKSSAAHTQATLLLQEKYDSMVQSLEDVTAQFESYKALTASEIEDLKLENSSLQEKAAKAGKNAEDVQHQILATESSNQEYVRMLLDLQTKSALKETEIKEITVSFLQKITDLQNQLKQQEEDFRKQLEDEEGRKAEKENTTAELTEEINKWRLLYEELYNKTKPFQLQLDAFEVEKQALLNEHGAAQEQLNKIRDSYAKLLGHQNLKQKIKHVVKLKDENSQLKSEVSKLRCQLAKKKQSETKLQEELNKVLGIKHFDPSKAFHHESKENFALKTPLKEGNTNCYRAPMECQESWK
Assay: co-IP; endogenous co-IP from A549 or H1299 lysate (IP lysis buffer with phosphatase and protease inhibitors), overnight with IgG or specific antibodies, protein A/G magnetic beads, 4°C, Western blot

Amino acid sequences for entries named in this document (tags omitted).
UniProt O95819: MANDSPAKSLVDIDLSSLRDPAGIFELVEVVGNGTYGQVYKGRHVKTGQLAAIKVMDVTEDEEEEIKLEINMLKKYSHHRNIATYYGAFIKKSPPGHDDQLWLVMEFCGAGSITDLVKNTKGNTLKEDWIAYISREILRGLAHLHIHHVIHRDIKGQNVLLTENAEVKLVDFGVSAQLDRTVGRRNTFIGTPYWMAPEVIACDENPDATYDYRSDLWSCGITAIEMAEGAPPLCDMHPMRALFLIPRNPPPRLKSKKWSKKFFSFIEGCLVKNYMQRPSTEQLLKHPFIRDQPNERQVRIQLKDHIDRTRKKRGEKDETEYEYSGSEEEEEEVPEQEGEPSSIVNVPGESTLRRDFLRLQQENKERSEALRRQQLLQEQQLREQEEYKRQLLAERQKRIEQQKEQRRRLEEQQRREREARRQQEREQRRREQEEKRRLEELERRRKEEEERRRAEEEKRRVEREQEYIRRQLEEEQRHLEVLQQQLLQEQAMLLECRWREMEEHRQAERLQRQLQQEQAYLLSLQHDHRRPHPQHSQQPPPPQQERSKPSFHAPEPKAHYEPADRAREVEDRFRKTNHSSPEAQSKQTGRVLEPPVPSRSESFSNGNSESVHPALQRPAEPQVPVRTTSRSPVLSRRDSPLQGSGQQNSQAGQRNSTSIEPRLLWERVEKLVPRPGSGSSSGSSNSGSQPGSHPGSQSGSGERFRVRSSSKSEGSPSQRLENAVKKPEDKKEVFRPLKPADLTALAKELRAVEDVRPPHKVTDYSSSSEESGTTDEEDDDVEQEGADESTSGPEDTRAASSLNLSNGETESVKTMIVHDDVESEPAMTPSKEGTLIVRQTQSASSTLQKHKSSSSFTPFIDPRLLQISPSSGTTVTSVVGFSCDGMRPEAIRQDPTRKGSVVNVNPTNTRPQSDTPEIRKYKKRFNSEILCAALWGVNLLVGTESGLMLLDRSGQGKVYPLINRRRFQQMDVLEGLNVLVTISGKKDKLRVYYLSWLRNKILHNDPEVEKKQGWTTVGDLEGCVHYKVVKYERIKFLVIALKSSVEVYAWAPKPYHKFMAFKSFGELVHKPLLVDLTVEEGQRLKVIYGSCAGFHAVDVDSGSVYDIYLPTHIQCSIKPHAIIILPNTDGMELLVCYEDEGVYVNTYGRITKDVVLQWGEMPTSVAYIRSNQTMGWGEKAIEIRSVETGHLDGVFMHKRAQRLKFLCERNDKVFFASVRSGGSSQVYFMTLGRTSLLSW

Substance: Mitogen-activated protein kinase kinase kinase kinase 4 (MAP4K4) (from UniProt O95819 1-1239)
- binding: binds
